Results deposited as PubChem BioAssay AID1159584 (Peter MacCallum Cancer Centre, 2016).
The deposit covers about 18,000 reagents; this is a random part of them. Further read-outs or replicates are left out here. Not given: the amount of reagent, the time to read-out.

Assay: 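Genes whose loss is lethal only together with E-cadherin loss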 (primary screen)
System: human MCF10A breast epithelial cells, parental and CDH1-null
Reagent: siRNA against human genes
Read-out: 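ATP luminescence (CellTiter-Glo) viability per line relative to mean mock wells over all plates, and the ratio of CDH1-null to parental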
Direction: CDH1-null / parental viability ratio: higher = CDH1-null cells survive relatively better than parental

Depletion of MIS18A came out at: CDH1-null / parental viability ratio 1.29.
With knock-down of MEIOB, the screen gave CDH1-null / parental viability ratio 1.08.
After knock-down of SETDB1 the results were CDH1-null / parental viability ratio 0.92.
DEFB105B showed CDH1-null / parental viability ratio 0.91.
Depletion of CCHCR1 gave: CDH1-null / parental viability ratio 0.92.
With knock-down of SFPQ the results were CDH1-null / parental viability ratio 0.96.
SIPA1 showed CDH1-null / parental viability ratio 1.1.
Silencing of STXBP3 resulted in: CDH1-null / parental viability ratio 1.05.
ZNF341 scored CDH1-null / parental viability ratio 1.02.
Knock-down of HSH2D gave: CDH1-null / parental viability ratio 0.94.
Knock-down of MYCL gave: CDH1-null / parental viability ratio 1.
Against CD320 the deposit lists CDH1-null / parental viability ratio 0.99.
After knock-down of PELI1 the results were CDH1-null / parental viability ratio 1.09.
Depletion of CCDC9 resulted in: CDH1-null / parental viability ratio 1.07.
With knock-down of OR8J1, the screen gave CDH1-null / parental viability ratio 0.99.
C1QTNF1 showed CDH1-null / parental viability ratio 1.02.
Knock-down of ZNF408 gave: CDH1-null / parental viability ratio 0.87.
Knock-down of VCP resulted in: CDH1-null / parental viability ratio 1.
Depletion of RBPMS2 came out at: CDH1-null / parental viability ratio 1.29.
CCT6B gave CDH1-null / parental viability ratio 0.94.
Depletion of IGF2BP2 gave: CDH1-null / parental viability ratio 1.16.

5 neighbouring reagents already listed, quoted:
SIPA1 | CDH1-null / parental viability ratio = 1.1
STXBP3 | CDH1-null / parental viability ratio = 1.05
ZNF341 | CDH1-null / parental viability ratio = 1.02
HSH2D | CDH1-null / parental viability ratio = 0.94
MYCL | CDH1-null / parental viability ratio = 1

The list goes on.
Against CTH, the values are CDH1-null / parental viability ratio 0.89.
For RIPK2 the deposit lists CDH1-null / parental viability ratio 1.05.
Against PRDM6, the values are CDH1-null / parental viability ratio 1.2.
Against KMT2B the deposit lists CDH1-null / parental viability ratio 0.97.
SLC30A4 scored CDH1-null / parental viability ratio 0.77.
After knock-down of SPMIP2, the screen gave CDH1-null / parental viability ratio 1.11.
With knock-down of BTF3, the screen gave CDH1-null / parental viability ratio 0.77.
AKT1S1 scored CDH1-null / parental viability ratio 1.1.
TBC1D8B gave CDH1-null / parental viability ratio 0.96.
Knock-down of B3GNT5 came out at: CDH1-null / parental viability ratio 0.84.
Depletion of TRIO resulted in: CDH1-null / parental viability ratio 0.96.
DNAJC21 gave CDH1-null / parental viability ratio 0.9.
After knock-down of CELF3, the screen gave CDH1-null / parental viability ratio 1.13.
Against HEATR1, the values are CDH1-null / parental viability ratio 1.06.
